# These are yes or no findings as the source states them, for the method shown. Binding seen in cells or lysates may run through a third protein. A yes stands for co-enrichment or nearness to the bait. Other partners may have been found.
# B1: MFF, endogenous (protein, UniProt Q9GZY8 1-342)
# chain: MSKGTSSDTSLGRVSRAAFPSPTAAEMAEISRIQYEMEYTEGISQRMRVPEKLKVAPPNADLEQGFQEGVPNASVIMQVPERIVVAGNNEDVSFSRPADLDLIQSTPFKPLALKTPPRVLTLSERPLDFLDLERPPTTPQNEEIRAVGRLKRERSMSENAVRQNGQLVRNDSLWHRSDSAPRNKISRFQAPISAPEYTVTPSPQQARVCPPHMLPEDGANLSSARGILSLIQSSTRRAYQQILDVLDENRRPVLRGGSAAATSNPHHDNVRYGISNIDTTIEGTSDDLTVVDAASLRRQIIKLNRRLQLLEEENKERAKREMVMYSITVAFWLLNSWLWFRR
# B2: MIEF2, endogenous (protein, UniProt Q96C03 1-454)
# chain: MAEFSQKRGKRRSDEGLGSMVDFLLANARLVLGVGGAAVLGIATLAVKRFIDRATSPRDEDDTKADSWKELSLLKATPHLQPRPPPAALSQPVLPLAPSSSAPEGPAETDPEVTPQLSSPAPLCLTLQERLLAFERDRVTIPAAQVALAKQLAGDIALELQAYFRSKFPELPFGAFVPGGPLYDGLQAGAADHVRLLVPLVLEPGLWSLVPGVDTVARDPRCWAVRRTQLEFCPRGSSPWDRFLVGGYLSSRVLLELLRKALAASVNWPAIGSLLGCLIRPSMASEELLLEVQHERLELTVAVLVAVPGVDADDRLLLAWPLEGLAGNLWLQDLYPVEAARLRALDDHDAGTRRRLLLLLCAVCRGCSALGQLGRGHLTQVVLRLGEDNVDWTEEALGERFLQALELLIGSLEQASLPCHFNPSVNLFSSLREEEIDDIGYALYSGLQEPEGLL
# B3: MTFR1, endogenous (protein, UniProt Q15390 49-333)
# chain: CPRVQFQINSHATEWSPSHPGEDAVASFADVGWVAKEEGECSARLRTEVRSRPPLQDDLLFFEKAPSRQISLPDLSQEEPQLKTPALANEEALQKICALENELAALRAQIAKIVTQQEQQNLTAGDLDSTTFGTIPPHPPPPPPPLPPPALGLHQSTSAVDLIKERREKRANAGKTLVKNNPKKPEMPNMLEILKEMNSVKLRSVKRSEQDVKPKPVDATDPAALIAEALKKKFAYRYRSDSQDEVEKGIPKSESEATSERVLFGPHMLKPTGKMKALIENVSDS
# Target: BioID2-tagged ARMC10 (human)
# Test: proximity labelling; BioID: HEK293T cells stably expressing BioID2-tagged ARMC10, 50 μM biotin for 16 h, streptavidin agarose beads overnight, mass spectrometry; six repeats, eight controls
row,Binder,binding
1,B1,binds
2,B2,binds
3,B3,binds

# Source: publication PMC6328551
